Data source: PubChem BioAssay AID1159578 (Peter MacCallum Cancer Centre, 2015)

Screen: 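Genome-wide hunt for genes controlling movement of lymphatic endothelial cells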 (primary screen)
Cells: human lymphatic endothelial cells
Reagent: siRNA pool against human genes, 40 nM
Time to read-out: 48 h after transfection
Read-out: 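High-content imaging of dye-stained cells in a scratch assay measures filled wound area and nuclei per well; duplicate means given as ratio to mock and robust z-score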
Reading the numbers: migration robust z-score: higher = faster migration into the scratch; migration relative to mock: higher = more scratch area covered than mock; nuclei per well: higher = more cells in the well
Call rule: 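Pools averaging fewer than 3300 nuclei are never called; remaining pools count as changed when migration robust z lies outside -2 to 2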
Meaning of the calls: active = migration changed; inactive = no migration change, or too few cells
In all, the deposit lists about 18,000 reagents; this is a random part of them. In the full data, about 1,030 (5.7%) are marked active. 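Inactive calls also include pools with fewer than 3300 nuclei, whose migration was not assessed.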 The raw values are shown without normalisation. Unmarked entries are inactive. Reagent sequences are not shown.

migration robust z-score	migration class with cell-count check	migration relative to mock	nuclei per well, duplicate mean	target
-1.23	migration z between -2 and 2; enough cells	0.57	5445	MPV17 (GeneID 4358)
0.39	migration z between -2 and 2; enough cells	0.88	5274	NME2 (GeneID 4831)
1.58	migration z between -2 and 2; enough cells	1.29	5206	OR4D9 (GeneID 390199)
-0.57	migration z between -2 and 2; enough cells	0.7	5174	BMPR1B (GeneID 658)
-0.46	migration z between -2 and 2; enough cells	0.76	5806	LASP1 (GeneID 3927)
0.12	migration z between -2 and 2; enough cells	0.92	5826	MUCL1 (GeneID 118430)
-1.6	migration z between -2 and 2; enough cells	0.47	5732	INVS (GeneID 27130)
-0.68	migration z between -2 and 2; enough cells	0.71	5928	IFNL3 (GeneID 282617)
-0.16	migration z between -2 and 2; enough cells	0.84	6434	HTR3E (GeneID 285242)
0.91	migration z between -2 and 2; enough cells	1.12	6240	DQX1 (GeneID 165545)
0.96	migration z between -2 and 2; enough cells	0.99	4858	DHX9 (GeneID 1660)
1.82	migration z between -2 and 2; enough cells	1.16	6199	NRF1 (GeneID 4899)
-0.82	migration z between -2 and 2; enough cells	0.68	4900	PDLIM7 (GeneID 9260)
-0.02	migration z between -2 and 2; enough cells	0.88	6954	PDE6B (GeneID 5158)
-1.27	migration z between -2 and 2; enough cells	0.56	5452	LGALS8 (GeneID 3964)
-0.62	migration z between -2 and 2; enough cells	0.72	4132	CDC20 (GeneID 991)
0.16	migration z between -2 and 2; enough cells	0.84	5930	TAOK3 (GeneID 51347)
0.03	migration z between -2 and 2; enough cells	0.81	4464	PTTG1 (GeneID 9232)
1.27	migration z between -2 and 2; enough cells	1.05	5776	RNF39 (GeneID 80352)
2.19 (active)	migration z above 2; enough cells	1.44	6212	CAMLG (GeneID 819)
-0.52	migration z between -2 and 2; enough cells	0.75	5733	LINC00336 (GeneID 401253)

Next part, starting with the last 2 of the part before.
migration robust z-score	migration class with cell-count check	migration relative to mock	nuclei per well, duplicate mean	target
2.19 (active)	migration z above 2; enough cells	1.44	6212	CAMLG (GeneID 819)
-0.52	migration z between -2 and 2; enough cells	0.75	5733	LINC00336 (GeneID 401253)
0.74	migration z between -2 and 2; enough cells	1.08	5324	NLRP4 (GeneID 147945)
-0.24	migration z between -2 and 2; enough cells	0.76	5179	GRIK2 (GeneID 2898)
0.08	migration z between -2 and 2; enough cells	0.82	6869	GADD45G (GeneID 10912)
-0.2	migration z between -2 and 2; enough cells	0.83	6198	ARMC12 (GeneID 221481)
0.12	migration z between -2 and 2; enough cells	0.91	5872	TNS4 (GeneID 84951)
-0.57	migration z between -2 and 2; enough cells	0.7	3876	RXRB (GeneID 6257)
-0.04	migration z between -2 and 2; enough cells	0.88	5840	MRPL52 (GeneID 122704)
0.39	migration z between -2 and 2; enough cells	0.98	5210	CCDC27 (GeneID 148870)
-0.76	migration z between -2 and 2; enough cells	0.66	6458	CHRM3 (GeneID 1131)
-0.62	migration z between -2 and 2; enough cells	0.73	7486	DEFB104B (GeneID 503618)
0.3	migration z between -2 and 2; enough cells	0.97	5704	AP3S1 (GeneID 1176)
0.03	migration z between -2 and 2; enough cells	0.9	7030	POLE4 (GeneID 56655)
0.8	migration z between -2 and 2; enough cells	0.96	5166	NOCT (GeneID 25819)
-1.14	migration z between -2 and 2; enough cells	0.58	3973	ADAM29 (GeneID 11086)
0.7	migration z between -2 and 2; enough cells	0.94	3684	PLCXD1 (GeneID 55344)
-0.5	migration z between -2 and 2; enough cells	0.76	5114	TBL1XR1 (GeneID 79718)
0.57	migration z between -2 and 2; enough cells	1.03	5162	TBL1X (GeneID 6907)
-0.74	migration z between -2 and 2; enough cells	0.69	6278	LARP1B (GeneID 55132)
